Results reported in US8299262B2, “Pyridylmethyl-sulfonamide compounds” (BASF SE, priority 2007, dated 2012).
Some of these results come from one statement about several compounds together. At least one structure is not confirmed: it was looked up by name or label, or the drawing left a doubt.

What was measured:
[1] = test system: Phytophthora infestans; format: cell-based; conditions: 125 ppm; relative to active compound-free control (=100%), day 7
[2] = test system: Puccinia recondita; test: Greenhouse test, curative action against Puccinia recondita on wheat (brown rust); format: in vivo, Puccinia recondita on wheat cultivar Kanzler; conditions: 250 ppm, curative spray on wheat one day after inoculation; untreated plants 90% infected
[3] = test system: Phytophthora infestans; format: in vivo, Phytophthora infestans on tomato plants; conditions: 250 ppm, protective spray on tomato, assessed after 6 days; untreated plants 90% infected
[4] = test system: Mycosphaerella fijiensis (Benzimidazole-Resistant Isolate); test: Microtiter test, Mycosphaerella fijiensis benzimidazole-resistant isolate (Use Example 9); format: cell-based; conditions: 125 ppm, control =100%, day 7
[5] = test system: Pyricularia oryzae; format: cell-based; conditions: 125 ppm; control =100%, day 7
[6] = test system: Septoria tritici; test: Microtiter test, Septoria blotch pathogen Septoria tritici (Use Example 3); format: cell-based; conditions: 125 ppm; control =100%, day 7
[7] = test system: Puccinia recondita; test: Greenhouse test, protective action against Puccinia recondita on wheat (Use Example 16); format: in vivo, Puccinia recondita on wheat cultivar Kanzler; conditions: 250 ppm, protective spray on wheat; untreated plants 90% infected
[8] = test system: Scerotinia sclerotinum; test: Microtiter test, Scerotinia sclerotinum (Use Example 8); format: cell-based; conditions: 125 ppm; control =100%, day 7
[9] = test system: Phakopsora pachyrhizi; test: Greenhouse test, protective action against Phakopsora pachyrhizi on soybean (Use Example 19); format: in vivo; conditions: 250 ppm, protective spray on soybean; untreated plants 90% infected
[10] = test system: Septoria tritici; test: Greenhouse test, protective action against Septoria tritici on wheat (Use Example 20); format: in vivo, Septoria tritici on wheat cultivar Kanzler; conditions: 250 ppm, protective spray on wheat, assessed after 21 days; untreated plants 90% infected

SMILES | infection [2] | infection (% diseased leaf area) [3] | infection [9] | further results
Cc1nccc(CNS(=O)(=O)c2ccc(Oc3ccc(C(F)(F)F)cn3)cc2)c1C [Example 3, N-(2,3-dimethylpyridin-4-ylmethyl)-4-(5-trifluoromethylpyridin-2-oxy)benzenesulfonyl amide] |  |  |  | growth of the pathogen [1]: at most 15%
O=S(=O)(NCc1ccnc2ccccc12)c1ccc(Oc2ccccn2)cc1 [Example 5] | less than or equal to 15% | less than or equal to 15% |  | 
COc1cc(CNS(=O)(=O)c2ccc(Oc3ccccn3)cc2)ccn1 [Example 7] |  |  |  | relative growth of the pathogen [4]: at most 25%; relative growth of the pathogen [5]: at most 15%
O=S(=O)(NCc1ccncc1)c1ccc(Oc2ncc(C(F)(F)F)cc2Cl)cc1 [Example 11] | less than or equal to 15% | less than or equal to 15% |  | 
COc1cc(CNS(=O)(=O)c2ccc(Oc3ccc(C(F)(F)F)cn3)cc2)ccn1 [Example 12] |  |  |  | relative growth of the pathogen [6]: at most 25%; relative growth of the pathogen [4]: at most 25%; relative growth of the pathogen [5]: at most 15%
COc1cnccc1CNS(=O)(=O)c1ccc(Oc2ccc(C(F)(F)F)cn2)cc1 [Example 15] |  |  |  | relative growth of the pathogen [6]: at most 25%; relative growth of the pathogen [5]: at most 15%
COc1cnccc1CNS(=O)(=O)c1ccc(Oc2ncccc2C(F)(F)F)cc1 [Example 16] |  |  |  | relative growth of the pathogen [6]: at most 25%; relative growth of the pathogen [5]: at most 15%
COc1cnccc1CNS(=O)(=O)c1ccc(Oc2ncc(C(F)(F)F)cc2Cl)cc1 [Example 17] |  |  |  | relative growth of the pathogen [6]: at most 25%; relative growth of the pathogen [5]: at most 15%
Cc1cnccc1CNS(=O)(=O)c1ccc(Oc2ncccc2C(F)(F)F)cc1 [Example 19] | less than or equal to 15% |  |  | infection [7]: less than or equal to 15%
Cc1cnccc1CNS(=O)(=O)c1ccc(Oc2ncc(C(F)(F)F)cc2Cl)cc1 [Example 20] | less than or equal to 15% |  |  | infection [7]: less than or equal to 15%
O=S(=O)(NCc1ccncc1)c1ccc(Oc2ccccn2)cc1 [Example 31] |  |  |  | relative growth of the pathogen [6]: at most 25%; relative growth of the pathogen [5]: at most 15%
Cc1nccc(CNS(=O)(=O)c2ccc(Oc3ccccn3)cc2)c1C [Example 33] |  |  |  | relative growth of the pathogen [4]: at most 25%; relative growth of the pathogen [5]: at most 15%
O=S(=O)(NCc1ccncc1)c1ccc(Oc2ncccn2)cc1 [Example 34] | less than or equal to 15% | less than or equal to 15% |  | 
COc1cc(CNS(=O)(=O)c2ccc(Oc3ncccn3)cc2)ccn1 [Example 35] | less than or equal to 15% | less than or equal to 15% |  | relative growth of the pathogen [4]: at most 25%; relative growth of the pathogen [8]: at most 25%
COc1cnccc1CNS(=O)(=O)c1ccc(Oc2ncccn2)cc1 [Example 36] | less than or equal to 15% | less than or equal to 15% |  | 
Cc1cnccc1CNS(=O)(=O)c1ccc(Oc2ncccn2)cc1 [Example 37] | less than or equal to 15% |  |  | 
Cc1nccc(CNS(=O)(=O)c2ccc(Oc3ncccn3)cc2)c1C [Example 38] | less than or equal to 15% | less than or equal to 15% |  | 
COc1cc(OC)nc(Oc2ccc(S(=O)(=O)NCc3ccncc3OC)cc2)n1 [Example 40] | less than or equal to 15% | less than or equal to 15% |  | 
COc1cc(OC)nc(Oc2ccc(S(=O)(=O)NCc3ccncc3C)cc2)n1 [Example 41] | less than or equal to 15% | less than or equal to 15% |  | 
COc1cc(OC)nc(Oc2ccc(S(=O)(=O)NCc3ccnc(C)c3C)cc2)n1 [Example 42] | less than or equal to 15% |  |  | 
COc1cnccc1CNS(=O)(=O)c1ccc(Oc2cccc(C)n2)cc1 [Example 46] |  |  |  | relative growth of the pathogen [6]: at most 25%; relative growth of the pathogen [5]: at most 15%
Cc1cccc(Oc2ccc(S(=O)(=O)NCc3ccnc(C)c3C)cc2)n1 [Example 47] | less than or equal to 15% | less than or equal to 15% |  | 
COc1cnccc1CNS(=O)(=O)c1ccc(Oc2nc(C)cc(C)n2)cc1 [Example 50] | less than or equal to 15% | less than or equal to 15% |  | 
Cc1cc(C)nc(Oc2ccc(S(=O)(=O)NCc3ccnc(C)c3C)cc2)n1 [Example 51] | less than or equal to 15% | less than or equal to 15% |  | 

SMILES | infection [2] | infection (% diseased leaf area) [3] | infection [9] | further results
COc1cnnc(Oc2ccc(S(=O)(=O)NCc3ccnc(OC)c3)cc2)c1 [Example 52] | less than or equal to 15% | less than or equal to 15% |  | 
COc1cc(CNS(=O)(=O)c2ccc(Oc3ccc(OC)nn3)cc2)ccn1 [Example 59] | less than or equal to 15% | less than or equal to 15% |  | 
COc1cc(CNS(=O)(=O)c2ccc(Oc3nccc(C(F)(F)F)n3)cc2)ccn1 [Example 63] | less than or equal to 15% | less than or equal to 15% |  | 
COc1cnccc1CNS(=O)(=O)c1ccc(Oc2nccc(C(F)(F)F)n2)cc1 [Example 64] | less than or equal to 15% | less than or equal to 15% |  | relative growth of the pathogen [4]: at most 25%; relative growth of the pathogen [8]: at most 25%
COc1cc(CNS(=O)(=O)c2ccc(Oc3nccc(OC)n3)cc2)ccn1 [Example 67] |  |  |  | growth of the pathogen [1]: at most 15%
O=S(=O)(NCc1ccnc2ccccc12)c1ccc(Oc2ncc(Cl)cc2Cl)cc1 [Example 79] | less than or equal to 15% | less than or equal to 15% |  | 
CON=C(C)c1ccc(Oc2ccc(S(=O)(=O)NCc3ccnc(C)c3C)cc2)nc1 [Example 107] |  |  | less than or equal to 15% | infection [7]: less than or equal to 15%
CCc1nccc(CNS(=O)(=O)c2ccc(Oc3ncc(C(F)(F)F)cc3Cl)cc2)c1C [Example 123] |  |  | less than or equal to 15% | infection [7]: less than or equal to 15%
COc1cc(CNS(=O)(=O)c2ccc(Oc3ncc(C(F)(F)F)cc3C)cc2)ccn1 [Example 160] |  | less than or equal to 15% |  | relative growth of the pathogen [4]: at most 25%; infection [7]: less than or equal to 15%
COc1cc(CNS(=O)(=O)c2ccc(Oc3ccc(C(F)(F)F)cn3)c(C)c2)ccn1 [Example 197] |  |  | less than or equal to 15% | infection [7]: less than or equal to 15%
COc1cc(CNS(=O)(=O)c2ccc(Oc3ccc(C(F)(F)F)cn3)cc2C)ccn1 [Example 201] |  |  | less than or equal to 15% | infection [7]: less than or equal to 15%
O=S(=O)(NCc1ccnc(Cl)c1)c1ccc(Oc2ncc(Cl)cc2Cl)cc1 [Example 210] |  |  | less than or equal to 15% | infection [7]: less than or equal to 15%
Cc1nccc(CNS(=O)(=O)c2ccc(Oc3ccc(C(F)(F)F)cn3)c(Cl)c2)c1C [Example 230] |  |  | less than or equal to 15% | infection [7]: less than or equal to 15%
CCOC(=O)c1ccc(Oc2ccc(S(=O)(=O)NCc3ccnc(C)c3C)cc2)nc1 [Example 244] |  |  | less than or equal to 15% | infection [7]: less than or equal to 15%
CCOc1c(CNS(=O)(=O)c2ccc(Oc3ncc(C(F)(F)F)cc3Cl)cc2)ccnc1C [Example 248] |  |  | less than or equal to 15% | infection [10]: less than or equal to 15%
Cc1ccc(Oc2ccc(S(=O)(=O)NCc3ccnc(C)c3C)cc2)nc1 [Example 254] |  |  | less than or equal to 15% | infection [7]: less than or equal to 15%
Cc1nccc(CNS(=O)(=O)c2ccc(Oc3c(Cl)c(C(F)(F)F)nn3C)cc2)c1C [Example 272] |  |  | less than or equal to 15% | infection [7]: less than or equal to 15%
COc1cc(CNS(=O)(=O)c2ccc(OCc3ccccn3)cc2)ccn1 [Example 293] |  |  | less than or equal to 15% | infection [10]: less than or equal to 15%
Cc1nccc(CNS(=O)(=O)c2ccc(OCc3ccccn3)cc2)c1C [Example 294] |  |  | less than or equal to 15% | infection [10]: less than or equal to 15%
COc1cc(CNS(=O)(=O)c2ccc(Oc3ncc(Cl)cc3F)c(C)c2)ccn1 [Example 305] |  |  | less than or equal to 15% | infection [10]: less than or equal to 15%
Cc1cc(COc2ccc(S(=O)(=O)NCc3ccnc(C)c3C)cc2)n(C)n1 [Example 312] |  | less than or equal to 15% | less than or equal to 15% | 
COc1cc(CNS(=O)(=O)c2ccc(Sc3ccc(C(F)(F)F)cn3)cc2)ccn1 [Example 313] |  | less than or equal to 15% | less than or equal to 15% | 
Cc1nccc(CNS(=O)(=O)c2ccc(Sc3ccc(C(F)(F)F)cn3)cc2)c1C [Example 314] |  | less than or equal to 15% | less than or equal to 15% | 
COc1cnccc1CNS(=O)(=O)c1ccc(Sc2ccc(C(F)(F)F)cn2)cc1 [Example 319] |  | less than or equal to 15% | less than or equal to 15% | 
